Source: PubChem BioAssay AID2685 (National Center for Advancing Translational Sciences (NCATS), 2010)
Out of some 320,000 compounds screened, about 2,100 (0.66%) were called active. Inconclusive means that the source gave no clear call. Such entries were picked first, then a sample of the others. Calls follow the shape of the dose curve; as a rule, active = well fitted inhibition curve with a large enough effect in the signal ratio, with a control signal flat (not every such curve was filed as active); inconclusive = small, poorly fitted or top-dose-only effect, or effect the other way, or a change in a side signal; inactive = flat fitted curve, though single readings scatter; the % refers to the signal ratio. Potencies beside an inconclusive call are fits to weak or partial responses and may not hold up.

Assay: qHTS Assay for Lipid Storage Modulators in Drosophila S3 Cells
Conditions: BODIPY lipid droplet fluorescence, 18-24 h, cells fed with added oleic acid; lipid storage change, negative = inhibition: at 46.1 µM (top of the series) unless noted
Excerpt: NIH Molecular Libraries Probe Production Centers Network [MLPCN] NIH Chemical Genomics Center [NCGC] MLPCN Grant: 1 R03 MH085686-01 Assay Submitter (PI): Beller, Mathias; Max-Planck-Institut fur Biophysikalische Chemie NCGC Assay Overview: Storing lipids as a reservoir for energy or the anabolism of elementary metabolites is a common feature of probably all cells and is conserved from bacteria to humans. The universal cellular lipid storage organelle is the so-called lipid storage droplet (LD). Although ubiquitous, LDs share a simple structure composed of a hydrophobic core that harbors the storage lipids, which is shielded by a droplet-specific phospholipid monolayer to which proteins are attached. The current model of LD biogenesis involves an incorporation of the lipid core into the membrane leaflets of the endoplasmic reticulum (ER) followed by a subsequent budding-like maturation of a LD, which ultimately pinches off. Once released, LD volume can increase by localized lipogenesis or fusion of existing droplet. Storage lipids are re-mobilized enzymatically by lipase activity. Lipase regulation in the adipocyte is heavily studied and involves multiple components including catecholamine signaling, the LD-associated proteins Perilipin and comparative gene identification (CGI-58) and at least two lipases named hormone sensitive lipase (HSL) and adipocyte triglyceride lipase (ATGL). LD regulation outside of the adipocyte is poorly understood and only few components are known. However, there is an urgent need to learn more about ectopic fat depots as mislocalized storage of lipids, for example in the liver or muscle, is an eminent health problem associated with insulin resistance or the metabolic syndrome. We developed a laser-scanning cytometer assay to enable 1,536-well screening and combined the results of the small molecules screen with an RNAi database based on lipid storage.
Triacsin C (Sigma-Aldrich T-4540), an inhibitor of long-chain fatty acyl CoA synthetase that blocks synthesis of triglycerides, was used as a positive control for lipid under-storage. A total of 23 nL of compound solution of different concentrations were transferred to the assay plates using a Kalypsys pin tool equipped with a 1,536-pin array containing 10-nL slotted pins (FP1S10, 0.457-mm diameter, 50.8 mm long; V&P Scientific). One microliter of oleic acid (400 uM) was added, and the plate was lidded with stainless steel rubber gasket lined lids containing pinholes. […] Fluorescence was detected by excitation of the fluorophores with a 488-nm laser on an Acumen Explorer (TTP Lab Tech). The total intensity in channel 2 (500-530 nm) reflected lipid droplet accumulation. Cells were detected using channel 3 (575-640 nm) with 5-um width and 100-um depth filters. The ratio of the number of objects in PMT channel 2 over the number of objects in PMT channel 3 was also calculated. Percent activity was computed relative to an internal control (100% inhibited lipid droplet deposition due to the presence of 20 uM Triacsin C), which was added to 32 wells/plate.
% is scaled to controls: 0 for no effect and ±100 for the full control effect; potency is read from the fitted curve at half-maximal effect.

Lipid storage change, negative = inhibition, inconclusive:
COC(=O)c1c(C)[nH]c(C)c1-c1ccc([N+](=O)[O-])cc1 13.7%
CSc1ccccc1C(=O)N1CCN(c2ncccn2)CC1 45.6%
CC(=O)OC[C@H]1O[C@@H](n2ncc(=O)[nH]c2=O)[C@H](OC(C)=O)[C@@H]1OC(C)=O -16.2%
O=C1C(=O)N(CCO)C(c2ccccc2)/C1=C(\O)c1ccccc1 (stereo unspecified) -26.5%
COC(=O)c1ccccc1NC(=O)CNCCc1ccc(OC)c(OC)c1 -49.2%
CCn1c(SCC(=O)Nc2ccc3c(c2)OCCO3)nnc1-c1cccs1 -0.935%
O=C(O)CCCC(=O)Nc1ccc(C(=O)N2CCCCC2)cc1 -17.4%
Cc1cc(C)c(N(C(=O)c2csnn2)C(C(=O)NC2CCCC2)c2ccncc2)c(C)c1 (stereo unspecified) 15.6%
O=C(Cn1cnc(S(=O)(=O)N2CCCCC2)c1)Nc1ccc(OC(F)(F)F)cc1 38.8%
COc1ccccc1Cn1c(=S)[nH]c2cc(C(=O)NCCN(C)C)ccc2c1=O 20.6%
Cc1cc(Cl)c(OCCCCN2CCOCC2)c(Br)c1 14.4%
CN(C(=O)COC(=O)c1ccccc1OCc1ccc(F)cc1)C1CCS(=O)(=O)C1 (stereo unspecified) 1.5%
Cc1onc(-c2c(Cl)cccc2Cl)c1C(=O)O/N=C(\C#N)c1c(Cl)cccc1Cl -36.5%
COc1ccc(NC(=O)CN2CCN(c3nc(-c4cccc(OC)c4)cs3)CC2)cc1 -22.6%
CCOc1ccccc1C(=O)NCC(=O)OCc1csc(CC(=O)Nc2ccc(C)cc2)n1 5.04%
O=C1C2CCCN2C(=O)N1CCCCN1CCN(CCO)CC1 (stereo unspecified) 3.36%
CCNC(=S)N(CCc1cccc(C)c1)Cc1cc2cc(OC)c(OC)cc2[nH]c1=O -14%
CCCCN(C(=O)/C=C/c1ccccc1)C1CCS(=O)(=O)C1 (stereo unspecified) 20.9%
COc1cc(/C=C2\CCCc3c2nc2ccccc2c3C(=O)O)cc(OC)c1O -3.83%
Cc1ccc(C(=O)N/C(=C/c2ccco2)C(=O)Nc2cccc(C)c2)cc1 2.31%
Cc1cc(N2C(=O)CC(Cc3ccccc3)C2=O)no1 (stereo unspecified) -0.294%
O=C(CN(Cc1ccc(F)cc1)C(=O)CNS(=O)(=O)c1ccccc1)NCC1CCCO1 (stereo unspecified) -19.5%
CNC(=O)c1sccc1Oc1ccc(F)cc1[N+](=O)[O-] 18.9%
CSc1nc(NC(C)(C)C)nc(N2CCOCC2)n1 -15.8%
COc1ccc(/C(O)=C2/C(=O)C(=O)N(CCN(C)C)C2c2ccc(C)cc2)cc1Cl (stereo unspecified) 0.474%
Cc1ccc(NC(=O)C(C)NS(=O)(=O)c2ccc(F)cc2)cc1C (stereo unspecified) 46.3%
CN(C(=O)c1ccc2nc(N)sc2c1)c1ccccc1 5.96%
CCN(CC(=O)NC(C)C)C(=O)[C@H](C)NC(=O)c1ccc(Br)cc1 38.5%
CNC(=S)N/N=C/c1ccc(N2CCOCC2)s1 16.4%
Cc1ccccc1OCC(=O)Nc1ccc(NC(=O)c2ccco2)cc1 -4.92%
COC(=O)c1c(F)c(F)c(NCCO)c(F)c1F 5.15%
O=C(/C=C/c1ccc(Cl)cc1Cl)NCc1ccncc1 7.29%
Cc1ccc(-n2nc3c(=O)n(C(C)C(=O)NCCc4cccs4)nc(C)c3c2C)cc1 (stereo unspecified) -7.75%
CCOC(=O)C(C)n1cnc2c(nnn2-c2cccc(Cl)c2)c1=O (stereo unspecified) 7.57%
CCOc1ccc(S(=O)(=O)NC(=O)c2ccccc2)cc1 1.23%
CCOc1ccc(C(C)=O)cc1COC(=O)c1ccc2c(c1)NC(=O)CS2 -57.1%
CC(C)Cn1c(Cc2ccccc2)n[nH]c1=S 15.4%
COc1ccc(CC(=O)Nc2ncc([N+](=O)[O-])s2)cc1OC 11.2%

An excerpt from above in order of length of the SMILES, rising:
Lipid storage change, negative = inhibition, inconclusive:
CC(C)Cn1c(Cc2ccccc2)n[nH]c1=S 15.4%
CCOC(=O)C(C)n1cnc2c(nnn2-c2cccc(Cl)c2)c1=O (stereo unspecified) 7.57%
Cc1ccc(-n2nc3c(=O)n(C(C)C(=O)NCCc4cccs4)nc(C)c3c2C)cc1 (stereo unspecified) -7.75%

Next part.

Lipid storage change, negative = inhibition, inactive:
COCCNC(=O)Cn1nc(-c2ccccc2C)ccc1=O -4.82%

Potency, inconclusive:
COc1cc(-c2cc(=O)c3c(O)c(OC)c(OC)c(O)c3o2)ccc1O 23.1 µM [falling, partial curve, poor fit]
COCCn1c(SCC(=O)Nc2ccc(C(C)=O)cc2)nc2c([nH]c3ccccc32)c1=O 20.6 µM [falling, single point]
O=C(CCl)Nc1cccc2ncccc12 23.1 µM [falling, single point]
Cc1nnc(Nc2ccccc2)n(N)c1=O 23.1 µM [activator, single point]
CC(=O)Nc1ccc(S(=O)(=O)NC(C)c2ccccc2)cc1 (stereo unspecified) 7.31 µM [activator, single point]
O=C(COC(=O)CNC(=O)c1ccccc1)NC1CCCCC1 0.82 µM [activator, full curve]
O=C(CSc1nnc(Nc2ccccc2)s1)NC1CC1 29.1 µM [activator, partial curve, poor fit]
COc1ccc(CN(C)CC(=O)Nc2cc3oc4ccccc4c3cc2OC)c(OC)c1 0.259 µM [activator, partial curve, poor fit]
COc1cc(/C=C/C(=O)O)cc2c1OCCO2 0.517 µM [falling, full curve]
COC(=O)c1cc2sccc2n1Cc1ccc(C)cc1 32.6 µM [falling, single point]
COC(=O)c1cccc(NC(=O)c2ccc(S(=O)(=O)N3CCN(C)CC3)cc2)c1 6.51 µM [activator, single point]

outcome, inactive:
CCOc1ccc(-n2ccc(=O)c(C(=O)Nc3ccc(S(=O)(=O)Nc4nccs4)cc3)n2)cc1 inactive [at 46.1 µM]
